# Source: PMC7819943, “Rice protein-binding microarrays: a tool to detect cis-acting elements near promoter regions in rice”
# The chains behind the UniProt entries cited, without tags or fusion partners.
# UniProt Q0JBA9, entry or part of it: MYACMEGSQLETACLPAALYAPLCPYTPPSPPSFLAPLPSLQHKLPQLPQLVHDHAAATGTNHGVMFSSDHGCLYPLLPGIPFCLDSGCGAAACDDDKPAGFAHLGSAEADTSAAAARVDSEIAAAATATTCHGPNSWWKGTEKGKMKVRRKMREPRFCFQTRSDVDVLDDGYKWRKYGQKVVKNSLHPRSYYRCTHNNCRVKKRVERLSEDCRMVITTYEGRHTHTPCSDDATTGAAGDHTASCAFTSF
# The other results are listed elsewhere or left out.
# Biological target: OsWRKY34 (Oryza sativa, UniProt Q0JBA9 1-250)
# Test: protein-binding microarray (RPBM); PBS, 2% BSA, 51.3 ng/ul salmon testes DNA, 50 uM zinc acetate, 200 nM TF, 25 C, 1 h; high values mean tight binding
# Details: protein: recombinant; tags: N-terminal polyhistidine and DsRed monomer fusion (pET32a); label: CyDye5-dUTP incorporated in the synthesized complementary strand; 3' TTTTT single-stranded linker to array surface; dsDNA, one strand shown
# Method in brief: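 Transcription factors, each fused N-terminally to a polyhistidine tag and DsRed, were expressed in E. coli BL21-CodonPlus and purified on Ni–NTA. A custom Agilent array was made double-stranded by primer extension with Cy5-dUTP and blocked with 2% BSA. It was incubated with 200 nM protein in PBS, 2% BSA, salmon testes DNA and 50 µM zinc acetate at 25 °C for 1 h, then washed. The binding signal is per-feature fluorescence intensity (arbitrary units) read on an Axon 4000B scanner.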
row,Sequence,binding signal
1,AGATACATACCCACACCTTTTATTCAGCCTTATCTTTTTCCGGAGTCACCTAGTGCAG,8660 fluorescence intensity (a.u.)
2,AAATCCTGGGCCCGCTGTGTTCGTTGGTAGTTGTGATTCGCGGAGTCACCTAGTGCAG,8680 fluorescence intensity (a.u.)
3,GTGTCGCCATATTTTTTTAAAAAAAGTTAGCATGTATTTACGGAGTCACCTAGTGCAG,9100 fluorescence intensity (a.u.)
4,TAGTCTCCTCCAATCCCCGAATTGTTCATCGTCTGTCGTCCGGAGTCACCTAGTGCAG,10000 fluorescence intensity (a.u.)
5,ATGGCTCTGCGCTCTCTTTCATCTTCTCTACGTGTCAGCTCGGAGTCACCTAGTGCAG,8100 fluorescence intensity (a.u.)
6,GCAGCAGATAGGAACACATACAGGGAATTAAGCTTCTAGCCGGAGTCACCTAGTGCAG,8860 fluorescence intensity (a.u.)
7,GGGTTACTTTCTCGCGTCACAAATTTTAGCCCTTCTTCTTCGGAGTCACCTAGTGCAG,8970 fluorescence intensity (a.u.)
8,GGCCTAATACTCGCACGCACGCATTCCCATGCTGCCCACACGGAGTCACCTAGTGCAG,8300 fluorescence intensity (a.u.)
9,GATGCCGAGAAAACCCCAATCGTTTACATGCCGGCGACTCCGGAGTCACCTAGTGCAG,9770 fluorescence intensity (a.u.)
10,CAGGGTTTCTTGGGTTTTGATTAATTGTAAGTTTAACTATCGGAGTCACCTAGTGCAG,11100 fluorescence intensity (a.u.)
11,CCATCGAATCCAATTCCATAGCTCGCACTTTTTCTATTCTCGGAGTCACCTAGTGCAG,9220 fluorescence intensity (a.u.)
12,ATAGTCCCAGGCCTATAATCTTTTTTTTTCTTGCTATATCCGGAGTCACCTAGTGCAG,8600 fluorescence intensity (a.u.)
13,ACTGTATATATATATATGTGTGTGTGTGTTTAGATTCATTCGGAGTCACCTAGTGCAG,8530 fluorescence intensity (a.u.)
14,TCGTTTCCACCACTCCGCTCTCTCCCCTCCTTATCCCCGTCGGAGTCACCTAGTGCAG,10300 fluorescence intensity (a.u.)
15,GGTTTAGGATTGGGTAATTTGGTTGGTGAGTTCACCCAAGCGGAGTCACCTAGTGCAG,10900 fluorescence intensity (a.u.)
16,CCGCTTTCCGGCCCTCGACCGCCCGTAGCCGCCGCTCCAGCGGAGTCACCTAGTGCAG,8500 fluorescence intensity (a.u.)
17,GACGACGCCACCTCCACCTTCACCTGCAACCACACCGATTCGGAGTCACCTAGTGCAG,9120 fluorescence intensity (a.u.)
18,ACATATTTTACTCGTGGTTTCCATTAGTATACTTTTCAAACGGAGTCACCTAGTGCAG,9560 fluorescence intensity (a.u.)
19,TTTCCTTTTTCGTTTTTTCGCAAGCGCGCCCGCCTTCAAACGGAGTCACCTAGTGCAG,9440 fluorescence intensity (a.u.)
20,ACTCCGTACTACTGCTACTATTTTTGTCCTGTTCAGATAACGGAGTCACCTAGTGCAG,12100 fluorescence intensity (a.u.)
21,AAGGGCATTACATTTCACGTGATTTTTCTCTCATCTTCAACGGAGTCACCTAGTGCAG,12200 fluorescence intensity (a.u.)

# Two records picked at random from those above, as already listed:
row,Sequence,binding signal
5,ATGGCTCTGCGCTCTCTTTCATCTTCTCTACGTGTCAGCTCGGAGTCACCTAGTGCAG,8100 fluorescence intensity (a.u.)
2,AAATCCTGGGCCCGCTGTGTTCGTTGGTAGTTGTGATTCGCGGAGTCACCTAGTGCAG,8680 fluorescence intensity (a.u.)

# (cont.)

row,Sequence,binding signal
1,GCTCCGCACTATCCTCCTCAAGTTTTGGTTGAATCGATCTCGGAGTCACCTAGTGCAG,8820 fluorescence intensity (a.u.)
2,GAAATAAGCCAAACGATGGGACCTACTTTTCGTCCCTTAACGGAGTCACCTAGTGCAG,8310 fluorescence intensity (a.u.)
3,TCTCTCACCTTTTCTTCTCAATCCGAGCAAGACGGCCGGCCGGAGTCACCTAGTGCAG,8420 fluorescence intensity (a.u.)
4,AGCCATTGCCACACACACACCGACCGGTGCTGTCGTGCTTCGGAGTCACCTAGTGCAG,8960 fluorescence intensity (a.u.)
5,ATCTATTGCTCCCTGCTCTGGTTACTTGCAATACACTAGTCGGAGTCACCTAGTGCAG,9060 fluorescence intensity (a.u.)
6,CAATTCCTCGTCTTCCAATCGCTGACTTCTATTCCCTGCTCGGAGTCACCTAGTGCAG,8470 fluorescence intensity (a.u.)
7,AATTTCGTCTTAAAAAAATATTTTGAGGATGTCTCTCTCTCGGAGTCACCTAGTGCAG,8400 fluorescence intensity (a.u.)
8,TACTGGCTTCACTTCTGTCTATATTCTTTCACATTTACATCGGAGTCACCTAGTGCAG,8580 fluorescence intensity (a.u.)
9,ATCTCAATCTTATCGATGTATTACCACACTGGGAGCTACACGGAGTCACCTAGTGCAG,8680 fluorescence intensity (a.u.)
10,GCTTTGCTGTTCTTTGCTTTGGTTCGGGGATCCGATTTCCCGGAGTCACCTAGTGCAG,9290 fluorescence intensity (a.u.)
11,GGTGGAGGGTAATACGGTCATTTCAACACTCTGCCACCCTCGGAGTCACCTAGTGCAG,8690 fluorescence intensity (a.u.)
12,GTTTTGTTTTGGTTGACCTTCACTTTCCATTTGCGACGATCGGAGTCACCTAGTGCAG,8260 fluorescence intensity (a.u.)
13,ACCTCGTGGCCACTGTTGCATGGTCAACTTTCCCACCCATCGGAGTCACCTAGTGCAG,12700 fluorescence intensity (a.u.)
14,CTAGCTCTATCTCTTCTGTAGCACCGTTTCAACTCTACCACGGAGTCACCTAGTGCAG,8280 fluorescence intensity (a.u.)
15,CACCATTTTCCTTACTGTAGATCACTTGGTGTTGTGCATTCGGAGTCACCTAGTGCAG,11700 fluorescence intensity (a.u.)
16,GTCGACGAGCTTCTCCTGGCCCTTTTTATCTGAGTTTTGTCGGAGTCACCTAGTGCAG,9720 fluorescence intensity (a.u.)
17,AATTTCTTTTGTTCTCAAGTCAGTTGGAAGCACCTTTTATCGGAGTCACCTAGTGCAG,8530 fluorescence intensity (a.u.)
18,TTGTCAATCCAACCTGCATCTATGCCCATGCGTGTGTTCTCGGAGTCACCTAGTGCAG,8130 fluorescence intensity (a.u.)
19,GCTCCGTGCTCTGCGCCTCCAAACGCGCGCGCCATTTTTCCGGAGTCACCTAGTGCAG,10200 fluorescence intensity (a.u.)
20,ACCCCGCCGATCAGAGCTCTCCTGTGCCCATATCCTGTTGCGGAGTCACCTAGTGCAG,14900 fluorescence intensity (a.u.)
21,TTACGCTCACTTTACAATTTCTACACTTGCTAATTTTAATCGGAGTCACCTAGTGCAG,8040 fluorescence intensity (a.u.)
